Source: PMC5466602
No constants are given. Whether binding was seen depends on the method and setting. Binding seen in cells or lysates may run through a third protein. Some results given as binding are weak or reduced against the parent protein; the word gives no strength. Sequences can lack the tags named with a protein.

T1: Utp21p-GFP (S. cerevisiae) (UniProt Q06078)
T1 sequence: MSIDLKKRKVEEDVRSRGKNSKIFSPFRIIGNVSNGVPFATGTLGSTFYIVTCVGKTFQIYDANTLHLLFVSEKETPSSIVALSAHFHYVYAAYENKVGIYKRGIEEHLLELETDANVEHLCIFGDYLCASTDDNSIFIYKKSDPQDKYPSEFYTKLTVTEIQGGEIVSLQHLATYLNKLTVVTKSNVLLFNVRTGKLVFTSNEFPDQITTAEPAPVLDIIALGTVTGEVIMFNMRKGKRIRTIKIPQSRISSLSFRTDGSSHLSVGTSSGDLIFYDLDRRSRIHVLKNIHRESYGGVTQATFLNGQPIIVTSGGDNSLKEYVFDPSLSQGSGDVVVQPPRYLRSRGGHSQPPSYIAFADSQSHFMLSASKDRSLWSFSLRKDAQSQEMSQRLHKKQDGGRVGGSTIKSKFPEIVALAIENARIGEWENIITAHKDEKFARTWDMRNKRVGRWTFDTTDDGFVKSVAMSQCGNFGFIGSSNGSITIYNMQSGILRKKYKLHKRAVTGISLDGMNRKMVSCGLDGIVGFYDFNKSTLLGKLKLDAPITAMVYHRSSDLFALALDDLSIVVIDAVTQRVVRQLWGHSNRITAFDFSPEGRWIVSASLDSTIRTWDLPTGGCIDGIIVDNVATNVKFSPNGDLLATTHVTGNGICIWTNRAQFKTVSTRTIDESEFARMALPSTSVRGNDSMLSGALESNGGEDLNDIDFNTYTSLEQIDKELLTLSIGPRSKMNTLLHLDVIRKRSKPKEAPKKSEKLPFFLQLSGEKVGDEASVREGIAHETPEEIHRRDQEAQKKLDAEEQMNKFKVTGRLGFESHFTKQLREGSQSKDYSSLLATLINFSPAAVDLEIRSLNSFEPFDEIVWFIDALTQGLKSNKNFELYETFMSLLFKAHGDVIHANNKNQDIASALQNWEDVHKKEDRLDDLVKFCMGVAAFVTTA

T2: Utp21p-TAP (S. cerevisiae) (UniProt Q06078)
T2 sequence: T1 sequence

B1: Utp18p (protein, UniProt P40362 1-594)
chain: MTMATTAMNVSVPPPDEEEQLLAKFVFGDTTDLQENLAKFNADFIFNEQEMDVEDQEDEGSESDNSEEDEAQNGELDHVNNDQLFFVDDGGNEDSQDKNEDTMDVDDEDDSSSDDYSEDSEEAAWIDSDDEKIKVPILVTNKTKKLRTSYNESKINGVHYINRLRSQFEKIYPRPKWVDDESDSELDDEEDDEEEGSNNVINGDINALTKILSTTYNYKDTLSNSKLLPPKKLDIVRLKDANASHPSHSAIQSLSFHPSKPLLLTGGYDKTLRIYHIDGKTNHLVTSLHLVGSPIQTCTFYTSLSNQNQQNIFTAGRRRYMHSWDLSLENLTHSQTAKIEKFSRLYGHESTQRSFENFKVAHLQNSQTNSVHGIVLLQGNNGWINILHSTSGLWLMGCKIEGVITDFCIDYQPISRGKFRTILIAVNAYGEVWEFDLNKNGHVIRRWKDQGGVGITKIQVGGGTTTTCPALQISKIKQNRWLAVGSESGFVNLYDRNNAMTSSTPTPVAALDQLTTTISNLQFSPDGQILCMASRAVKDALRLVHLPSCSVFSNWPTSGTPLGKVTSVAFSPSGGLLAVGNEQGKVRLWKLNHY
B2: Pwp2p-ΔC206 (aa 1–717) (domain or fragment, UniProt P25635 1-717)
chain: MKSDFKFSNLLGTVYRQGNITFSDDGKQLLSPVGNRVSVFDLINNKSFTFEYEHRKNIAAIDLNKQGTLLISIDEDGRAILVNFKARNVLHHFNFKEKCSAVKFSPDGRLFALASGRFLQIWKTPDVNKDRQFAPFVRHRVHAGHFQDITSLTWSQDSRFILTTSKDLSAKIWSVDSEEKNLAATTFNGHRDYVMGAFFSHDQEKIYTVSKDGAVFVWEFTKRPSDDDDNESEDDDKQEEVDISKYSWRITKKHFFYANQAKVKCVTFHPATRLLAVGFTSGEFRLYDLPDFTLIQQLSMGQNPVNTVSVNQTGEWLAFGSSKLGQLLVYEWQSESYILKQQGHFDSTNSLAYSPDGSRVVTASEDGKIKVWDITSGFCLATFEEHTSSVTAVQFAKRGQVMFSSSLDGTVRAWDLIRYRNFRTFTGTERIQFNCLAVDPSGEVVCAGSLDNFDIHVWSVQTGQLLDALSGHEGPVSCLSFSQENSVLASASWDKTIRIWSIFGRSQQVEPIEVYSDVLALSMRPDGKEVAVSTLKGQISIFNIEDAKQVGNIDCRKDIISGRFNQDRFTAKNSERSKFFTTIHYSFDGMAIVAGGNNNSICLYDVPNEVLLKRFIVSRNMALNGTLEFLNSKKMTEAGSLDLIDDAGENSDLEDRIDNSLPGSQRGGDLSTRKMRPEVRVTSVQFSPTANAFAAASTEGLLIYSTNDTILFDPFDL
B3: Pwp2p-ΔC66 (domain or fragment, UniProt P25635 1-857)
chain: MKSDFKFSNLLGTVYRQGNITFSDDGKQLLSPVGNRVSVFDLINNKSFTFEYEHRKNIAAIDLNKQGTLLISIDEDGRAILVNFKARNVLHHFNFKEKCSAVKFSPDGRLFALASGRFLQIWKTPDVNKDRQFAPFVRHRVHAGHFQDITSLTWSQDSRFILTTSKDLSAKIWSVDSEEKNLAATTFNGHRDYVMGAFFSHDQEKIYTVSKDGAVFVWEFTKRPSDDDDNESEDDDKQEEVDISKYSWRITKKHFFYANQAKVKCVTFHPATRLLAVGFTSGEFRLYDLPDFTLIQQLSMGQNPVNTVSVNQTGEWLAFGSSKLGQLLVYEWQSESYILKQQGHFDSTNSLAYSPDGSRVVTASEDGKIKVWDITSGFCLATFEEHTSSVTAVQFAKRGQVMFSSSLDGTVRAWDLIRYRNFRTFTGTERIQFNCLAVDPSGEVVCAGSLDNFDIHVWSVQTGQLLDALSGHEGPVSCLSFSQENSVLASASWDKTIRIWSIFGRSQQVEPIEVYSDVLALSMRPDGKEVAVSTLKGQISIFNIEDAKQVGNIDCRKDIISGRFNQDRFTAKNSERSKFFTTIHYSFDGMAIVAGGNNNSICLYDVPNEVLLKRFIVSRNMALNGTLEFLNSKKMTEAGSLDLIDDAGENSDLEDRIDNSLPGSQRGGDLSTRKMRPEVRVTSVQFSPTANAFAAASTEGLLIYSTNDTILFDPFDLDVDVTPHSTVEALREKQFLNALVMAFRLNEEYLINKVYEAIPIKEIPLVASNIPAIYLPRILKFIGDFAIESQHIEFNLIWIKALLSASGGYINEHKYLFSTAMRSIQRFIVRVAKEVVNTTTDNKYTYRFLVSTDGSME
B4: Pwp2p-ΔC32 (domain or fragment, UniProt P25635 1-891)
chain: MKSDFKFSNLLGTVYRQGNITFSDDGKQLLSPVGNRVSVFDLINNKSFTFEYEHRKNIAAIDLNKQGTLLISIDEDGRAILVNFKARNVLHHFNFKEKCSAVKFSPDGRLFALASGRFLQIWKTPDVNKDRQFAPFVRHRVHAGHFQDITSLTWSQDSRFILTTSKDLSAKIWSVDSEEKNLAATTFNGHRDYVMGAFFSHDQEKIYTVSKDGAVFVWEFTKRPSDDDDNESEDDDKQEEVDISKYSWRITKKHFFYANQAKVKCVTFHPATRLLAVGFTSGEFRLYDLPDFTLIQQLSMGQNPVNTVSVNQTGEWLAFGSSKLGQLLVYEWQSESYILKQQGHFDSTNSLAYSPDGSRVVTASEDGKIKVWDITSGFCLATFEEHTSSVTAVQFAKRGQVMFSSSLDGTVRAWDLIRYRNFRTFTGTERIQFNCLAVDPSGEVVCAGSLDNFDIHVWSVQTGQLLDALSGHEGPVSCLSFSQENSVLASASWDKTIRIWSIFGRSQQVEPIEVYSDVLALSMRPDGKEVAVSTLKGQISIFNIEDAKQVGNIDCRKDIISGRFNQDRFTAKNSERSKFFTTIHYSFDGMAIVAGGNNNSICLYDVPNEVLLKRFIVSRNMALNGTLEFLNSKKMTEAGSLDLIDDAGENSDLEDRIDNSLPGSQRGGDLSTRKMRPEVRVTSVQFSPTANAFAAASTEGLLIYSTNDTILFDPFDLDVDVTPHSTVEALREKQFLNALVMAFRLNEEYLINKVYEAIPIKEIPLVASNIPAIYLPRILKFIGDFAIESQHIEFNLIWIKALLSASGGYINEHKYLFSTAMRSIQRFIVRVAKEVVNTTTDNKYTYRFLVSTDGSMEDGAADDDEVLLKDDADEDNEENEENDVVMESDDE
B5: Pwp2p (wild type, plasmid-encoded, untagged) (protein, UniProt P25635 1-923)
chain: MKSDFKFSNLLGTVYRQGNITFSDDGKQLLSPVGNRVSVFDLINNKSFTFEYEHRKNIAAIDLNKQGTLLISIDEDGRAILVNFKARNVLHHFNFKEKCSAVKFSPDGRLFALASGRFLQIWKTPDVNKDRQFAPFVRHRVHAGHFQDITSLTWSQDSRFILTTSKDLSAKIWSVDSEEKNLAATTFNGHRDYVMGAFFSHDQEKIYTVSKDGAVFVWEFTKRPSDDDDNESEDDDKQEEVDISKYSWRITKKHFFYANQAKVKCVTFHPATRLLAVGFTSGEFRLYDLPDFTLIQQLSMGQNPVNTVSVNQTGEWLAFGSSKLGQLLVYEWQSESYILKQQGHFDSTNSLAYSPDGSRVVTASEDGKIKVWDITSGFCLATFEEHTSSVTAVQFAKRGQVMFSSSLDGTVRAWDLIRYRNFRTFTGTERIQFNCLAVDPSGEVVCAGSLDNFDIHVWSVQTGQLLDALSGHEGPVSCLSFSQENSVLASASWDKTIRIWSIFGRSQQVEPIEVYSDVLALSMRPDGKEVAVSTLKGQISIFNIEDAKQVGNIDCRKDIISGRFNQDRFTAKNSERSKFFTTIHYSFDGMAIVAGGNNNSICLYDVPNEVLLKRFIVSRNMALNGTLEFLNSKKMTEAGSLDLIDDAGENSDLEDRIDNSLPGSQRGGDLSTRKMRPEVRVTSVQFSPTANAFAAASTEGLLIYSTNDTILFDPFDLDVDVTPHSTVEALREKQFLNALVMAFRLNEEYLINKVYEAIPIKEIPLVASNIPAIYLPRILKFIGDFAIESQHIEFNLIWIKALLSASGGYINEHKYLFSTAMRSIQRFIVRVAKEVVNTTTDNKYTYRFLVSTDGSMEDGAADDDEVLLKDDADEDNEENEENDVVMESDDEEGWIGFNGKDNKLPLSNENDSSDEEENEKELP

The binders below were run against T1, Utp21p-GFP (S. cerevisiae) (assay: co-IP; Utp21p-GFP purified on GFP-TRAP-M magnetic beads (Chromotek) from yeast lysate, buffer PM; western blot; 14 h in glucose medium to deplete genomic Pwp2p, plasmid-borne PWP2 alleles).

binding	Binder
binds	B1
binds	B2

The binders below were run against T2, Utp21p-TAP (S. cerevisiae) (assay: co-IP; Utp21p-TAP purified on IgG-coupled magnetic beads from yeast lysate, buffer PM (150 mM KOAc, 20 mM Tris-HCl pH 8.0, 5 mM MgCl2, 1 mM DTT, 0.2% Triton); eluate analysed by western blot; genomic GAL::HA-PWP2 shut off in glucose (8 h, 18 h or 14 h) with a plasmid-borne PWP2 allele or empty plasmid).

binding	Binder
binds	B3
binds	B4
binds	B1
binds	B2
binds	B5
